Results published in patent US20130288302A1.
These are yes or no findings as the source states them, for the method shown. Some entries that bind do so weakly or less than the wild type.

By UniProt entry, the sequences of proteins in these tests, tags left out. Where a name states a change or a piece, a line headed by the entry shows the natural chain unless it says otherwise.
UniProt P38570: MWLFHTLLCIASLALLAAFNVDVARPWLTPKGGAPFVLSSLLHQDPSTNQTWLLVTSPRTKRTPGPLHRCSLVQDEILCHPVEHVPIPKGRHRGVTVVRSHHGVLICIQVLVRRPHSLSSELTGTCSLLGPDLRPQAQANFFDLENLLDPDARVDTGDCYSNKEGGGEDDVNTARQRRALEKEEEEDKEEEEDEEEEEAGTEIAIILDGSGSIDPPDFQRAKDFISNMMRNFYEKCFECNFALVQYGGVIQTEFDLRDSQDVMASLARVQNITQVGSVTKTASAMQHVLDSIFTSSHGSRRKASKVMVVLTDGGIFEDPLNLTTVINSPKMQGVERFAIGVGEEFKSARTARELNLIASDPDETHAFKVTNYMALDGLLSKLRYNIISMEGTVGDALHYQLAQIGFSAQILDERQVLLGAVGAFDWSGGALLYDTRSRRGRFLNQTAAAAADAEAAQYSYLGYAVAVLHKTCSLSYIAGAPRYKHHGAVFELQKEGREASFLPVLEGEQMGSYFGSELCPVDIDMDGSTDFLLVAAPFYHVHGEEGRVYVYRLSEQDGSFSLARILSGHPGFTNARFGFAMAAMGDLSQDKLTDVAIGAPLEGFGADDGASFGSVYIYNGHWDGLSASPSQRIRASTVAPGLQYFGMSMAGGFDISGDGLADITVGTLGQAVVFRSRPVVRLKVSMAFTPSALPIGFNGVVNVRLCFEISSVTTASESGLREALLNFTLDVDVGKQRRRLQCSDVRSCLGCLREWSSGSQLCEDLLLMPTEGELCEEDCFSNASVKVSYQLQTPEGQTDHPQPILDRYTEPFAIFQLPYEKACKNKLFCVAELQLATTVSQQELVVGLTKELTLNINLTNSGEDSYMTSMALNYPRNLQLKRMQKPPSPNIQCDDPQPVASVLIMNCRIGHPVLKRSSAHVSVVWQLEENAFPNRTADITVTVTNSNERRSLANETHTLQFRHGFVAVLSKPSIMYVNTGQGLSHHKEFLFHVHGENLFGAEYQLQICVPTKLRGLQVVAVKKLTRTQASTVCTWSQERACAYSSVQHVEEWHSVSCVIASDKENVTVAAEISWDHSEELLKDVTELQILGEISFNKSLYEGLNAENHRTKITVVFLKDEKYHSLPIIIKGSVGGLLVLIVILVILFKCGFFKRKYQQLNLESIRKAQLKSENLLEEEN
UniProt P26010: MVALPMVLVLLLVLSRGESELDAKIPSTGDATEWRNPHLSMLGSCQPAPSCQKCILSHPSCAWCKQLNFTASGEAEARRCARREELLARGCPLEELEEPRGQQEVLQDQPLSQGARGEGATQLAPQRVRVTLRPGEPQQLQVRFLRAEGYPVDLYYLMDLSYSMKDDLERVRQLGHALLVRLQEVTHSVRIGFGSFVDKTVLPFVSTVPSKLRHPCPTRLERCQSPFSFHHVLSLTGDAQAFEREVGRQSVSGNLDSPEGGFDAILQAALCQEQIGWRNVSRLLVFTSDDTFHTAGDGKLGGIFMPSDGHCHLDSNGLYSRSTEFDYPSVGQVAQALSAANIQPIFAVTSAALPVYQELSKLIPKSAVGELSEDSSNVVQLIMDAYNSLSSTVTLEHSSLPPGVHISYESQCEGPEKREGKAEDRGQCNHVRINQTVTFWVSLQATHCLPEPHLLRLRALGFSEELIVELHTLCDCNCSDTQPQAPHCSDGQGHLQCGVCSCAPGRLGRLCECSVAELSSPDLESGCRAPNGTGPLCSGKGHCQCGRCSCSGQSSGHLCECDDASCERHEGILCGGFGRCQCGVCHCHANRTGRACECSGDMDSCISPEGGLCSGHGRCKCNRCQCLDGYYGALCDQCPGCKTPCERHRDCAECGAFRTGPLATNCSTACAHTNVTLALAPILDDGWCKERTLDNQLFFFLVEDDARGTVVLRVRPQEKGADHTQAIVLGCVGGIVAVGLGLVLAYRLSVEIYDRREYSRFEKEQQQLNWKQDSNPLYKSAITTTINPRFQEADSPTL

B1: Variant hu504.5 (IgG) (antibody, name in Kabat numbering, V domains shown)
VH: EVQLVESGGGLVQPGGSLRLSCAASGFFITNNYWGWVRQAPGKGLEWVGYISYSGSTSYNPSLKSRFTISRDTSKNTFYLQMNSLRAEDTAVYYCAMTGSSGYFDFWGQGTLVTVSS
VL: DIQMTQSPSSLSASVGDRVTITCRASESVDSLLHWYQQKPGKAPKLLIKYASQSISGVPSRFSGSGSGTDFTLTISSLQPEDFATYYCQQGNSLPNTFGQGTKVEIKR
B2: Variant hu504.16 (IgG) (antibody, name in Kabat numbering, V domains shown)
VH: EVQLVESGGGLVQPGGSLRLSCAASGFFITNNYWGWVRQAPGKGLEWVGYISYSGSTSYNPSLKSRFTISRDTSKNTFYLQMNSLRAEDTAVYYCAMTGSSGYFDFWGQGTLVTVSS
VL: DIQMTQSPSSLSASVGDRVTITCRASESVDTLLHWYQQKPGKAPKLLIKYASQSISGVPSRFSGSGSGTDFTLTISSLQPEDFATYYCQQGNSLPNTFGQGTKVEIKR
B3: Variant hu504.32 (IgG) (antibody, V domains shown)
VH: EVQLVESGGGLVQPGGSLRLSCAASGFFITNNYWGWVRQAPGKGLEWVGYISYSGSTSYNPSLKSRFTISRDTSKNTFYLQMNSLRAEDTAVYYCAMTGSSGYFDFWGQGTLVTVSS
VL: DIQMTQSPSSLSASVGDRVTITCRASESVDDLLHWYQQKPGKAPKLLIKYASQSISGVPSRFSGSGSGTDFTLTISSLQPEDFATYYCQQGNSLPNTFGQGTKVEIKR

These binders were tested against alphaEbeta7 on transfected 293 cells (human) (UniProt P38570+P26010) (assay: summary of the cell adhesion inhibition assays).
For B1, the binding was “binds”. In the case of B2, the binding is reported as “binds”. B3 was tested, and the binding was “binds”.
